Reference: PubChem BioAssay AID1259308 (NCATS, 2017)
The deposit covers about 59,000 reagents; shown is a part drawn at random. Of all reagents, about 1,510 (2.6%) were called active. 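Calls use total luciferase alone and ignore viability, so some active siRNAs may act by altering cell number.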 Not all columns of the deposit are shown.

Screen: 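Candidate targets for better recombinant protein yield in mammalian cells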 (primary screen)
Cell system: human HEK293 embryonic kidney cells stably expressing firefly luciferase (HEK-CMV-Luc2-Hygro)
Reagent: single siRNA against human genes, 0.8 pmol siRNA per well
Timing: 72 h
Measured: 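Luciferase light (ONE-Glo) measured on one replicate plate set and viability (CellTiter-Glo) on the other, scaled to a negative control siRNA, with robust z-scores and luciferase per cell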
Scale: total luciferase, z-score: higher = more reporter protein produced
Call rule: 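Active when the median/MAD z-score for overall luciferase is greater than 3; a gene was taken forward for validation with new siRNAs if at least two of its three siRNAs passed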
Meaning of the calls: active = raised luciferase; inactive = no rise

total luciferase, z-score, by target and reagent
ZBTB41 (zinc finger and BTB domain containing 41): SID160765223 0.518 inactive; SID160765224 3.47 active; SID160765225 3.06 active
CYB5D1 (cytochrome b5 domain containing 1): SID160756217 -2.45 inactive; SID160756218 0.579 inactive; SID160756219 0.526 inactive
DEFB118 (defensin beta 118): SID160755575 -0.173 inactive; SID160755576 0.29 inactive; SID160755577 -1.56 inactive
CPE (carboxypeptidase E): SID160747391 -0.456 inactive; SID160747402 0.114 inactive; SID160747414 0.654 inactive
EIF3H (eukaryotic translation initiation factor 3 subunit H): SID160720556 -0.347 inactive; SID160720557 -1.72 inactive; SID160720558 -1.88 inactive
SNAP47 (synaptosome associated protein 47): SID160732360 1.6 inactive; SID160755472 -1.05 inactive; SID160755474 -0.368 inactive
TSSK4 (testis specific serine kinase 4): SID160762987 -0.566 inactive; SID160762988 0.0702 inactive; SID160762989 -0.647 inactive
RNASE10 (ribonuclease A family member 10 (inactive)): SID160764132 0.99 inactive; SID160764133 -0.426 inactive; SID160764134 0.218 inactive
RPAP1 (RNA polymerase II associated protein 1): SID160737457 0.471 inactive; SID160737458 -1.44 inactive; SID160737459 -1.11 inactive
SIGIRR (single Ig and TIR domain containing): SID160724505 1.27 inactive; SID160724506 -0.435 inactive; SID160746982 0.421 inactive
TFPT (TCF3 fusion partner): SID160733037 0.682 inactive; SID160739204 2.23 inactive; SID160739205 -0.575 inactive
SAR1B (secretion associated Ras related GTPase 1B): SID160731354 -2.15 inactive; SID160740134 -0.534 inactive; SID160740135 0.703 inactive
ARMC10P1 (armadillo repeat containing 10 pseudogene 1): SID160766107 -0.428 inactive; SID160766108 -0.222 inactive; SID160766109 1.07 inactive
NIPAL1 (NIPA like domain containing 1): SID160759248 -2.7 inactive; SID160759249 0.946 inactive; SID160759250 -2.09 inactive
S100A8 (S100 calcium binding protein A8): SID160716295 2.09 inactive; SID160716296 1.31 inactive; SID160731681 0.154 inactive
PRR3 (proline rich 3): SID160750513 0.191 inactive; SID160750514 -0.456 inactive; SID160750515 -0.632 inactive
SDHAF4 (succinate dehydrogenase complex assembly factor 4): SID160757398 0.2 inactive; SID160757399 0.307 inactive; SID160757400 1.61 inactive
CD34 (CD34 molecule): SID160738996 0.127 inactive; SID160739006 -0.000858 inactive; SID160739016 -0.348 inactive
PTN (pleiotrophin): SID160715349 -0.79 inactive; SID160715350 -0.239 inactive; SID160731608 1.32 inactive

Already shown: an excerpt of the list.
total luciferase, z-score, by target and reagent
PRR3 (proline rich 3): SID160750515 -0.632 inactive
SDHAF4 (succinate dehydrogenase complex assembly factor 4): SID160757398 0.2 inactive; SID160757399 0.307 inactive; SID160757400 1.61 inactive
